Results are given in words; binding and its absence hold for the method and conditions named. Binding seen in cells or lysates may run through a third protein. Some binding calls cover weakened binding; strength is not graded here.
Target: FOXO1 (mouse (endogenous in MIN6)), Q9R1E0
Test: co-IP; untransfected MIN6 cells treated with 5 ng/ml TGF-β1 and 0.5 mM palmitate for 24 h; IP with rabbit anti-FOXO1, blot with mouse anti-Smad3 (endogenous proteins)
Conditions: remark: other sources report otherwise

binding: binds
B1: Smad3 (endogenous), Q8BUN5 1-425 (protein)
chain: MSSILPFTPPIVKRLLGWKKGEQNGQEEKWCEKAVKSLVKKLKKTGQLDELEKAITTQNVNTKCITIPRSLDGRLQVSHRKGLPHVIYCRLWRWPDLHSHHELRAMELCEFAFNMKKDEVCVNPYHYQRVETPVLPPVLVPRHTEIPAEFPPLDDYSHSIPENTNFPAGIEPQSNIPETPPPGYLSEDGETSDHQMNHSMDAGSPNLSPNPMSPAHNNLDLQPVTYCEPAFWCSISYYELNQRVGETFHASQPSMTVDGFTDPSNSERFCLGLLSNVNRNAAVELTRRHIGRGVRLYYIGGEVFAECLSDSAIFVQSPNCNQRYGWHPATVCKIPPGCNLKIFNNQEFAALLAQSVNQGFEAVYQLTRMCTIRMSFVKGWGAEYRRQTVTSTPCWIELHLNGPLQWLDKVLTQMGSPSIRCSSVS

— PMC7070087
